Assay results taken from patent US20130324530A1 (Novartis AG, priority 2010, published 2013).
The match of structure and compound is tentative.

The chains behind the UniProt entries cited, without tags or fusion partners.
UniProt P50750, whole entry: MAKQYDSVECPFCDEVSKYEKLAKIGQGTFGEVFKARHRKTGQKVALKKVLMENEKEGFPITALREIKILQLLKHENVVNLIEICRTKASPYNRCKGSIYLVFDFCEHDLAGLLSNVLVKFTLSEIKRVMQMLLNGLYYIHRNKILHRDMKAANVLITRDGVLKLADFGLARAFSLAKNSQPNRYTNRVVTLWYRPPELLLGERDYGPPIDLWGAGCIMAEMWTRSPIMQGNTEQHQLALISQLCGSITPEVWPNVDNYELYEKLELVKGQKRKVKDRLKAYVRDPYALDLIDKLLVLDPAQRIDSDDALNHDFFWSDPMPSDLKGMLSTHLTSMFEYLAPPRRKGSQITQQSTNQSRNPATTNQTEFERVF
UniProt O60563, whole entry partner: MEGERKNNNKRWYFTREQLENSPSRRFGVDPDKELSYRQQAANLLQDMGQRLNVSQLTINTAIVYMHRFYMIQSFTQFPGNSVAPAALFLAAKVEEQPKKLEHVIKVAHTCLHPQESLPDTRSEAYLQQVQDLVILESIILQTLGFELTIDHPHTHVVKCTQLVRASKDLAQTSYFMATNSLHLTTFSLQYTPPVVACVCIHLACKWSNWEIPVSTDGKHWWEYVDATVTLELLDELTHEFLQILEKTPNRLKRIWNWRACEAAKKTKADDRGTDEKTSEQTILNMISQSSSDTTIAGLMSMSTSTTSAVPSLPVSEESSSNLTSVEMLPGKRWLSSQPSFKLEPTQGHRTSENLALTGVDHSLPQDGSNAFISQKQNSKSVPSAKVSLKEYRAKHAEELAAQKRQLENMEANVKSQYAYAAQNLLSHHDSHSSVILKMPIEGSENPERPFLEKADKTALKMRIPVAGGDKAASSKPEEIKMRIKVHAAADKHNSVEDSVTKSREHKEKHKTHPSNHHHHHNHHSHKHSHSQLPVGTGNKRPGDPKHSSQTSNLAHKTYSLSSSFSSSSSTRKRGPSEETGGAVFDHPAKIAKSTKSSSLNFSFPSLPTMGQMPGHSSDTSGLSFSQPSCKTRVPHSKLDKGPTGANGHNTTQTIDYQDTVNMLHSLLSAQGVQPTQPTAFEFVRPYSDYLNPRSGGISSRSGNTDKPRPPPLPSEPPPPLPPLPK

Target: Cdk9/cyclinT1 (Homo sapiens, UniProt P50750)
Assay: Cdk9/CyclinT1 IMAP assay
Conditions: read-out: CDK9 IC50, 6 uM ATP, lower limit about 0.008, values lower than 0.008 measured under conditions with a lower dynamic range

## CN(C)CCCNc1cc(-c2cncc(NCc3cccc(F)c3)c2)c(Cl)cn1
  IC50: 45 nM
